These are yes or no findings as the source states them, for the method shown. In cells and extracts the contact can be indirect. A result given as binding can be weak or reduced; the word gives no strength.
Molecular target: p21 activated kinase 1 protein (PAK1) - p21 binding domain (PBD) coated beads (UniProt Q13153)
Experiment: pull-down; 20 ug PAK1-PBD coated beads incubated with 300-800 ug lysate of MDA-MB-231 cells (treated with control or CD99 siRNA) on a rotator at 4°C for 1 h; bound CDC42 detected by blotting with anti-CDC42 antibodies; only the target purified

By UniProt entry, the sequences of proteins in these tests, tags left out. Where a name states a change or a piece, a line headed by the entry shows the natural chain unless it says otherwise.
UniProt Q13153: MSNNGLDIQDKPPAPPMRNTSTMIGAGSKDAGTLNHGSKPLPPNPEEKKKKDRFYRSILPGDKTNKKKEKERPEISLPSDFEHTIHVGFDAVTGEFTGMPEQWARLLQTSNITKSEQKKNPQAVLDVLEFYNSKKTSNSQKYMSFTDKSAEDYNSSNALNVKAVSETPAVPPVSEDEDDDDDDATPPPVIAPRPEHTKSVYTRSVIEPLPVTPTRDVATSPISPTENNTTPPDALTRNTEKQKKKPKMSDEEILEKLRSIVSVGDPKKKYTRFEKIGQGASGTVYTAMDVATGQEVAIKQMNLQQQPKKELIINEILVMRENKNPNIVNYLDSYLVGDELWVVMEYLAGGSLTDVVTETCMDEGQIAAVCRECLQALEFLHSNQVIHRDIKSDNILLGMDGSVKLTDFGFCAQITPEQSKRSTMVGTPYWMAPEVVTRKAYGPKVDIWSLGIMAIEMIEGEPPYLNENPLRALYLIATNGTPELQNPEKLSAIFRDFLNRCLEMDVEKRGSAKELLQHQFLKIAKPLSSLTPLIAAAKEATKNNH
UniProt P60953: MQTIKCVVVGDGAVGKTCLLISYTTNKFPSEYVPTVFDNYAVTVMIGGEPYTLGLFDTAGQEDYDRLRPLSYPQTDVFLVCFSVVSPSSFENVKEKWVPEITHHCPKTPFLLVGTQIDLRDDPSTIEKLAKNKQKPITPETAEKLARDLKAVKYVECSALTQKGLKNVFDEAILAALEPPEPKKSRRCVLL

GTP-bound CDC42 (from UniProt P60953 1-191)
binding: binds
